PubChem BioAssay AID1508597 – Cure First, 2020

Screen: 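Survival screen with siRNA in ovarian cancer cells derived from patients, with or without rucaparib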 (primary screen)
Cell system: human ovarian carcinoma lines grown from tumours: OCI-P5x (papillary serous) and OCI-C5x (clear cell)
Reagents: siRNA pool against human genes, 1.25 pmol siRNA per well
Duration: 72 h or 96 h, depending on the cell culture
Conditions: rucaparib 20 µM (about IC30) or vehicle, present until read-out
Rucaparib or vehicle: Rucaparib
Cell line: OCI-C5x (clear cell)
Detection: 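Luminescent ATP-based viability assay read 72 or 96 h after transfection, depending on culture, given as normalised percent viability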
Reading the numbers: viability, normalised: higher = more viable cells remaining
Call rule: 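a well counts as a hit if its normalised viability is under 80 percent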
Calls: active = viability under 80%; inactive = viability 80% or more
Shown is an unselected part of the about 2,100 reagents, in one setting of the screen. 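Calls flag viability under 80% in either arm, not effects specific to rucaparib; the reference for percent is not stated.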 Unmarked entries are inactive. No sequences are given here. Not stated in the record: the 100% reference.

For POLL, technical replicate 1, what does the deposit list?
viability, normalised (%): 55.2 (active)

With POLL, technical replicate 2, what does the deposit list?
viability, normalised (%): 27.7 (active)

What did the screen give for POLL, technical replicate 3?
viability, normalised (%): 39.3 (active)

With EPHA5, technical replicate 1, what was measured?
viability, normalised (%): 53.3 (active)

For EPHA5, technical replicate 2, how do the results read?
viability, normalised (%): 53.6 (active)

For EPHA5, technical replicate 3, how do the results read?
viability, normalised (%): 67.3 (active)

What is on record for PIK3C2A, technical replicate 1?
viability, normalised (%): 63.5 (active)

For PIK3C2A, technical replicate 2, how do the results read?
viability, normalised (%): 70 (active)

With PIK3C2A, technical replicate 3, what does the deposit list?
viability, normalised (%): 61 (active)

For ERRFI1, technical replicate 1, what does the deposit list?
viability, normalised (%): 58.1 (active)

For ERRFI1, technical replicate 2, how do the results read?
viability, normalised (%): 48.4 (active)

What did the screen give for ERRFI1, technical replicate 3?
viability, normalised (%): 60.8 (active)

What is on record for DDX3Y, technical replicate 1?
viability, normalised (%): 51.1 (active)

With DDX3Y, technical replicate 2, how do the results read?
viability, normalised (%): 33.3 (active)

For DDX3Y, technical replicate 3, what was measured?
viability, normalised (%): 41.1 (active)

In a second layout: 4 of the entries above.
{"Target gene": "POLL", "technical replicate": "2", "viability, normalised (%)": "27.7 (active)"}
{"Target gene": "POLL", "technical replicate": "3", "viability, normalised (%)": "39.3 (active)"}
{"Target gene": "EPHA5", "technical replicate": "1", "viability, normalised (%)": "53.3 (active)"}
{"Target gene": "EPHA5", "technical replicate": "2", "viability, normalised (%)": "53.6 (active)"}

Further entries follow:
For CREBBP, technical replicate 1, how do the results read?
viability, normalised (%): 34.4 (active)

For CREBBP, technical replicate 2, what was measured?
viability, normalised (%): 31.3 (active)

What did the screen give for CREBBP, technical replicate 3?
viability, normalised (%): 26.9 (active)

For DHX8, technical replicate 1, how do the results read?
viability, normalised (%): 31.4 (active)

What is on record for DHX8, technical replicate 2?
viability, normalised (%): 23.6 (active)

What did the screen give for DHX8, technical replicate 3?
viability, normalised (%): 19.6 (active)

For PDE4D, technical replicate 1, what does the deposit list?
viability, normalised (%): 58 (active)

For PDE4D, technical replicate 2, what was measured?
viability, normalised (%): 35.8 (active)

What is on record for PDE4D, technical replicate 3?
viability, normalised (%): 34.3 (active)

What is on record for MAD2L2, technical replicate 1?
viability, normalised (%): 39.9 (active)

For MAD2L2, technical replicate 2, what does the deposit list?
viability, normalised (%): 38.9 (active)

What is on record for MAD2L2, technical replicate 3?
viability, normalised (%): 42 (active)

What is on record for GDAP2, technical replicate 1?
viability, normalised (%): 34.5 (active)

With GDAP2, technical replicate 2, how do the results read?
viability, normalised (%): 24 (active)

Which result is listed for GDAP2, technical replicate 3?
viability, normalised (%): 43.2 (active)

Which result is listed for CDK8, technical replicate 1?
viability, normalised (%): 59.3 (active)

Which result is listed for CDK8, technical replicate 2?
viability, normalised (%): 33.4 (active)

With CDK8, technical replicate 3, what does the deposit list?
viability, normalised (%): 58.5 (active)

For POLB, technical replicate 1, what does the deposit list?
viability, normalised (%): 49 (active)

With POLB, technical replicate 2, what does the deposit list?
viability, normalised (%): 40.2 (active)

Which result is listed for POLB, technical replicate 3?
viability, normalised (%): 56.4 (active)

With EDC4, technical replicate 1, what does the deposit list?
viability, normalised (%): 57.4 (active)

With EDC4, technical replicate 2, what was measured?
viability, normalised (%): 44.9 (active)

For EDC4, technical replicate 3, what does the deposit list?
viability, normalised (%): 44.5 (active)

Which result is listed for FANCC, technical replicate 1?
viability, normalised (%): 39.1 (active)

What did the screen give for FANCC, technical replicate 2?
viability, normalised (%): 62.9 (active)

What did the screen give for FANCC, technical replicate 3?
viability, normalised (%): 41.1 (active)
